In the supplement of paper PMC7666118:
This is one part of the list.

Sequences of proteins named here, by UniProt entry; tags and fusion partners are left off. A change or cut given only in a name is not applied to a line headed by its entry.
UniProt P12544: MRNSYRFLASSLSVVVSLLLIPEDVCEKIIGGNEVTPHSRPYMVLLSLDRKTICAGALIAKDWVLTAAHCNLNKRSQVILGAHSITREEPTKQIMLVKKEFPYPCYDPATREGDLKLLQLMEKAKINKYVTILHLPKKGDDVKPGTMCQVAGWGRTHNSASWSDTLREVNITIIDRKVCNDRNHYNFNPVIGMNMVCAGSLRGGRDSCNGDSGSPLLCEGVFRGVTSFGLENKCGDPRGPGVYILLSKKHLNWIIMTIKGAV
UniProt Q4V328: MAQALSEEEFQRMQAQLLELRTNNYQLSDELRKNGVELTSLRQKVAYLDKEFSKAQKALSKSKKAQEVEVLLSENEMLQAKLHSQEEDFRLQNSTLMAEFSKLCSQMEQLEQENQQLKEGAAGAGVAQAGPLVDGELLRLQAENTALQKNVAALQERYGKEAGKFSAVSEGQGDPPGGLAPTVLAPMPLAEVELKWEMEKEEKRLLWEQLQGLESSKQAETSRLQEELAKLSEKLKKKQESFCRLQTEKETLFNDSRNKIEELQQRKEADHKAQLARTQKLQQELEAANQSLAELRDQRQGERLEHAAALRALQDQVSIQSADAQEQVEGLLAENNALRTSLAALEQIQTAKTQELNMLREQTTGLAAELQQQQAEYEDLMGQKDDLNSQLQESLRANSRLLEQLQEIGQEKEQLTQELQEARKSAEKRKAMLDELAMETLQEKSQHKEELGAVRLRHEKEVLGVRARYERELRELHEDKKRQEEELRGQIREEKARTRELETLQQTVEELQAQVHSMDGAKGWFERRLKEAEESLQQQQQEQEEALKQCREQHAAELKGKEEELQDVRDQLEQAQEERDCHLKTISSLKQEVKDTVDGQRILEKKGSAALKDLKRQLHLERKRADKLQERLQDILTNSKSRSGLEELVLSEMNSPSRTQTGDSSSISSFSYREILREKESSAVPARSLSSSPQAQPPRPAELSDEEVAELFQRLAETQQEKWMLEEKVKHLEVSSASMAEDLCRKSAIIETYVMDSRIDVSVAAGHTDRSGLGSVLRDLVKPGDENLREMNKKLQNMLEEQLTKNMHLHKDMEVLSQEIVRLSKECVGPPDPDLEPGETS
UniProt P15586: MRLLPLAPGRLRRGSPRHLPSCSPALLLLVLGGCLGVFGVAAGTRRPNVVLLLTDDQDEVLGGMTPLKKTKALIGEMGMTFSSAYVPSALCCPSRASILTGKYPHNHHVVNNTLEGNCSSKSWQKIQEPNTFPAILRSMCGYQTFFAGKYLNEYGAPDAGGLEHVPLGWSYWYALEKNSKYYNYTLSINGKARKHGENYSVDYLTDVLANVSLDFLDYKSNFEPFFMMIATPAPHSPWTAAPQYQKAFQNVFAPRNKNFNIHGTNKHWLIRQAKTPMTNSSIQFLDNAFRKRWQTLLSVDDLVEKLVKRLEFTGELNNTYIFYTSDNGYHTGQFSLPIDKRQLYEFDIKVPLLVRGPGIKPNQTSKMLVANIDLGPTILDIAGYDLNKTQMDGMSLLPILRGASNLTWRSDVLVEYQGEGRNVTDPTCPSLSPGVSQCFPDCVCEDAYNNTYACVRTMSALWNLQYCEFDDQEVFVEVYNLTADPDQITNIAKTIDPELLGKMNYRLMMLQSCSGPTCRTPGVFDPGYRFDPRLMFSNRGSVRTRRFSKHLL
UniProt Q9Y5P6: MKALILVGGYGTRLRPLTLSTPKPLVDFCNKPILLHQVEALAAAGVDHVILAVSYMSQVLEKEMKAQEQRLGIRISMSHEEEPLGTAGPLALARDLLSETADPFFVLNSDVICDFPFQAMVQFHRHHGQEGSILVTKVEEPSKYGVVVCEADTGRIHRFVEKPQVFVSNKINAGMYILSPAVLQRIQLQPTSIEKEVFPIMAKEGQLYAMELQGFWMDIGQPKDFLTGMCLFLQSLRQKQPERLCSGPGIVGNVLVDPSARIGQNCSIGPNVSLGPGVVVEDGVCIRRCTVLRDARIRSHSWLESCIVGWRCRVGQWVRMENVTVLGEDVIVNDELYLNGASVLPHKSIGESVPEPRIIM
UniProt Q9UJ83: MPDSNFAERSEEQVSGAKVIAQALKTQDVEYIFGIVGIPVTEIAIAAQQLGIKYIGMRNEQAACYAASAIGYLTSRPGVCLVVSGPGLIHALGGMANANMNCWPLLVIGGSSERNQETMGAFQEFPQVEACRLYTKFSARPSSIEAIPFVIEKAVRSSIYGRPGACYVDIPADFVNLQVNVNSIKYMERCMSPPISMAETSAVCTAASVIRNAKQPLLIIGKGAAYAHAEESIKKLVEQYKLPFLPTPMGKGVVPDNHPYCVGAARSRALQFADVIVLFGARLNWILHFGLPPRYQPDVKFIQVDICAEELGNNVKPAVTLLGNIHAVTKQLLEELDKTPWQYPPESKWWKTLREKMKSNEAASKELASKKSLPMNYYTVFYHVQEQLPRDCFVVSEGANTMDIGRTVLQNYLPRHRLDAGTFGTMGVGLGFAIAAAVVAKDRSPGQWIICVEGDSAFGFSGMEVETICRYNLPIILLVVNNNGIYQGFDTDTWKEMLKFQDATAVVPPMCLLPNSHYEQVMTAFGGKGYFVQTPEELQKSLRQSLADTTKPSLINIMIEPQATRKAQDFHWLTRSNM
UniProt Q9NQS5: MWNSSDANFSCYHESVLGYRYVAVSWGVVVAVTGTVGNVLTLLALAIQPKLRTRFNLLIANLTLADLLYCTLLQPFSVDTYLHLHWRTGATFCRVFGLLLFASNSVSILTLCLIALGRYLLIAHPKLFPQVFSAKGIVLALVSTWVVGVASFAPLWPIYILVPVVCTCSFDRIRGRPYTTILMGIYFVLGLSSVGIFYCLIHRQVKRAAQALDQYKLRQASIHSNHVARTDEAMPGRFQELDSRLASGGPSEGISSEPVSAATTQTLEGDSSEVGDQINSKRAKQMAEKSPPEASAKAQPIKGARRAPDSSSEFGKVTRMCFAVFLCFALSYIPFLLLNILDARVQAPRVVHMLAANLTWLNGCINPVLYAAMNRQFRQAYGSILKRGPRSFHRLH
UniProt Q86V85: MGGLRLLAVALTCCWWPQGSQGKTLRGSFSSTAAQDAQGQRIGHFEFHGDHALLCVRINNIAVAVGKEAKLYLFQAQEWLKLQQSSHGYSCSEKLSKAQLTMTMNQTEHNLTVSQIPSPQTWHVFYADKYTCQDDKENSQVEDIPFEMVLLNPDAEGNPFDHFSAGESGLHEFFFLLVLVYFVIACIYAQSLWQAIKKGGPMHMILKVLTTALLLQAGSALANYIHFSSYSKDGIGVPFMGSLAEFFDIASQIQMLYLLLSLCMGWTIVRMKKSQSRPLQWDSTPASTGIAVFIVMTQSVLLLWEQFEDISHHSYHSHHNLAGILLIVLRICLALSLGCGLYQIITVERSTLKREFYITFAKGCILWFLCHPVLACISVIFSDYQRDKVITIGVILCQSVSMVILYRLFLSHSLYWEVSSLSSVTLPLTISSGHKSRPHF
UniProt O43314: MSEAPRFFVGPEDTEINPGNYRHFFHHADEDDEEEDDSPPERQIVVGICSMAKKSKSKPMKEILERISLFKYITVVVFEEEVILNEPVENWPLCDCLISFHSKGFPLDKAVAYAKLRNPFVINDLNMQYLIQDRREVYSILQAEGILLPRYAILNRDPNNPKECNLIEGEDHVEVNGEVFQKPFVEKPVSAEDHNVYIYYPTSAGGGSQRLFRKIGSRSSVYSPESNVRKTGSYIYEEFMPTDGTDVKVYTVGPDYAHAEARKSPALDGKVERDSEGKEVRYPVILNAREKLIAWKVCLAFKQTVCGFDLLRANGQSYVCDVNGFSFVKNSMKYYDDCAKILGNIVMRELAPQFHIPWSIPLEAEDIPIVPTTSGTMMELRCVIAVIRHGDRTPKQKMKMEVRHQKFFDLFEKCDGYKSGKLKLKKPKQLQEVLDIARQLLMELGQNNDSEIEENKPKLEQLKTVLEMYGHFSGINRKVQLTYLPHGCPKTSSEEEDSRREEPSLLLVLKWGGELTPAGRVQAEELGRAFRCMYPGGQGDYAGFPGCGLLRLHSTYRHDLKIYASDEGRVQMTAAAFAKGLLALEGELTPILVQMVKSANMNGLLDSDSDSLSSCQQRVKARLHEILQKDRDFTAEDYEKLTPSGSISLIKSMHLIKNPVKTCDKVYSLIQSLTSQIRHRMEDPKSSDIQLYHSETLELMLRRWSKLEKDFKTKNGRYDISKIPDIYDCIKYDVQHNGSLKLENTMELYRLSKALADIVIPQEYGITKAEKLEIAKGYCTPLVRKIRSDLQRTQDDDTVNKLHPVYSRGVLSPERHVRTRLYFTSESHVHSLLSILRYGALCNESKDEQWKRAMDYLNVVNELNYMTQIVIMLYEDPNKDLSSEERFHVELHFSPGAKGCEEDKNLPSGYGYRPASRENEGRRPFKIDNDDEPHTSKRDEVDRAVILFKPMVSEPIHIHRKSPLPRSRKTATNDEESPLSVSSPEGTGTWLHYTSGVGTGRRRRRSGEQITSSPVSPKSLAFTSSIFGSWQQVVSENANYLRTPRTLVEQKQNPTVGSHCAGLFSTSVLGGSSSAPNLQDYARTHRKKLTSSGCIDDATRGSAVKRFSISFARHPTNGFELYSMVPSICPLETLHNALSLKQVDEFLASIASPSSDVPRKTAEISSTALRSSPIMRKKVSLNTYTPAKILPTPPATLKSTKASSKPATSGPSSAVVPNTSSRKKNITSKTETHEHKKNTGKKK
UniProt Q8IWJ2: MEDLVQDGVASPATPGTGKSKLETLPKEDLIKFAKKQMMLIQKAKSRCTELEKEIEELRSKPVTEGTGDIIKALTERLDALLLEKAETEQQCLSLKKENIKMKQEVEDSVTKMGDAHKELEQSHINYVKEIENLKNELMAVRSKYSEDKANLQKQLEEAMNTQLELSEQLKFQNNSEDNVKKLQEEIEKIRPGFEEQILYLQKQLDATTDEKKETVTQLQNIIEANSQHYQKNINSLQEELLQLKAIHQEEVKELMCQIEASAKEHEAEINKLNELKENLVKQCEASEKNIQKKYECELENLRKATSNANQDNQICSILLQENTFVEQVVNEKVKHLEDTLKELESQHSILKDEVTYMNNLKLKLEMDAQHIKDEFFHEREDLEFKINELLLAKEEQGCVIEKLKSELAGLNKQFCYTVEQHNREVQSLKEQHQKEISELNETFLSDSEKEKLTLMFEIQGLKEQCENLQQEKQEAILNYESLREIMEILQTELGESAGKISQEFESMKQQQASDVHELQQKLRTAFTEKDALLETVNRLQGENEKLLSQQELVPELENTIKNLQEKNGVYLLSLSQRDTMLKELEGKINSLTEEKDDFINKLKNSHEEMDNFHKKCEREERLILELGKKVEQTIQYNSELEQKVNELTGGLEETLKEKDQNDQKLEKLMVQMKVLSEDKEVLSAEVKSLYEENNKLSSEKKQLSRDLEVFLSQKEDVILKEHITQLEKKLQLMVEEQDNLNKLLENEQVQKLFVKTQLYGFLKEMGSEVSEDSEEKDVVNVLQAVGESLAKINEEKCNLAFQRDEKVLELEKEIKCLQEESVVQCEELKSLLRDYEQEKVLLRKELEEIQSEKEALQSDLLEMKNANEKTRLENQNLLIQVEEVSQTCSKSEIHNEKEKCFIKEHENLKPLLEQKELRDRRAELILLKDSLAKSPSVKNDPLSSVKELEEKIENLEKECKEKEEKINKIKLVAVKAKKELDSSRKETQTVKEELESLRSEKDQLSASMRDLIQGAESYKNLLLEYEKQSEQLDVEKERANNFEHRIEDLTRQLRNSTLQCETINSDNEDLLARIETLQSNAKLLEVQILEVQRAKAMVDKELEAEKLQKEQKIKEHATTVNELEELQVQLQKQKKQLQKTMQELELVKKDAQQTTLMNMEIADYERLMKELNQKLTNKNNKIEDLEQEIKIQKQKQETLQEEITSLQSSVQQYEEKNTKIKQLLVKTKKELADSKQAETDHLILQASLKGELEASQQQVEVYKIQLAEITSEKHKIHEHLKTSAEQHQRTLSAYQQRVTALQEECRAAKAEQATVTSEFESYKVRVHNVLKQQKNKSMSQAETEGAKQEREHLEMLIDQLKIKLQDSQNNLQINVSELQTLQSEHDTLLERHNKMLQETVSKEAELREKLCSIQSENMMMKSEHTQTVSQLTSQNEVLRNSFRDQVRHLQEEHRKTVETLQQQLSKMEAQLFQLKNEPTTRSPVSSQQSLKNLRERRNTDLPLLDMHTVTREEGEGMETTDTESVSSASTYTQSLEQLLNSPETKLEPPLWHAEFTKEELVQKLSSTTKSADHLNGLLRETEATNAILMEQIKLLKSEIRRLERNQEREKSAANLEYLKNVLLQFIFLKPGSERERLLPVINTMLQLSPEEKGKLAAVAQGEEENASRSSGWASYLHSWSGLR
UniProt P62993, whole entry, looked up: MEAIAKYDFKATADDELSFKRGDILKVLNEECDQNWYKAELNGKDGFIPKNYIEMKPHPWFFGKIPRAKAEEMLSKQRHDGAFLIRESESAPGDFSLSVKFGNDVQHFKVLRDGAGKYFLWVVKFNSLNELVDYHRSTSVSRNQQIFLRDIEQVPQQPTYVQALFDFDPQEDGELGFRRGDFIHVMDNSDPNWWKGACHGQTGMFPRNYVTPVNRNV

The targets below were run with COc1ccc(Cn2ccc3ccc(C(=O)NO)cc32)cc1 (assay: dose-dependent thermal stabilisation call (2D-TPP, DLPTP, 10% FDR) (binary (1 = stabilised)); higher = stabilised by the compound). Conditions: system: HL-60 intact cells; concentration range 0.04-10 µM.
With GZMA (UniProt P12544) the “dose-dependent thermal stabilisation call” value was inactive: 0.
HERC2 (UniProt O95714) was tested, and the “dose-dependent thermal stabilisation call” value was inactive: 0.
With GPATCH2 (UniProt Q9NW75) the “dose-dependent thermal stabilisation call” value was inactive: 0.
In the case of GTSE1 (UniProt Q9NYZ3), the “dose-dependent thermal stabilisation call” value is reported as inactive: 0.
With GPR172A (UniProt Q9HAB3) the “dose-dependent thermal stabilisation call” value was inactive: 0.
HCG_2033311 was tested, and the “dose-dependent thermal stabilisation call” value was inactive: 0.
With GNPDA2 (UniProt Q8TDQ7) the “dose-dependent thermal stabilisation call” value was inactive: 0.
With HDAC3 (UniProt O15379) the “dose-dependent thermal stabilisation call” value was inactive: 0.
In the case of HBS1L (UniProt Q9Y450), the “dose-dependent thermal stabilisation call” value is reported as inactive: 0.
In the case of HCCS (UniProt P53701), the “dose-dependent thermal stabilisation call” value is reported as inactive: 0.
With GRIPAP1 (UniProt Q4V328) the “dose-dependent thermal stabilisation call” value was inactive: 0.
In the case of HIBADH (UniProt P31937), the “dose-dependent thermal stabilisation call” value is reported as active: 1.
In the case of HIBCH (UniProt Q6NVY1), the “dose-dependent thermal stabilisation call” value is reported as inactive: 0.
In the case of GNS (UniProt P15586), the “dose-dependent thermal stabilisation call” value is reported as inactive: 0.
For GMPR2 (UniProt Q9P2T1), the “dose-dependent thermal stabilisation call” value was inactive: 0.
In the case of GIGYF1 (UniProt O75420), the “dose-dependent thermal stabilisation call” value is reported as inactive: 0.
With GMPPB (UniProt Q9Y5P6) the “dose-dependent thermal stabilisation call” value was inactive: 0.
HACL1 (UniProt Q9UJ83) was tested, and the “dose-dependent thermal stabilisation call” value was inactive: 0.
With GPR84 (UniProt Q9NQS5) the “dose-dependent thermal stabilisation call” value was inactive: 0.
With HISPPD2A (UniProt Q6PFW1) the “dose-dependent thermal stabilisation call” value was inactive: 0.
In the case of GINS1 (UniProt Q14691), the “dose-dependent thermal stabilisation call” value is reported as inactive: 0.
GLTSCR2 (UniProt Q9NZM5) was tested, and the “dose-dependent thermal stabilisation call” value was inactive: 0.
With HAT1 (UniProt O14929) the “dose-dependent thermal stabilisation call” value was inactive: 0.
GLT25D1 (UniProt Q8NBJ5) was tested, and the “dose-dependent thermal stabilisation call” value was inactive: 0.
With GPR180 (UniProt Q86V85) the “dose-dependent thermal stabilisation call” value was inactive: 0.
With HDAC5 (UniProt Q9UQL6) the “dose-dependent thermal stabilisation call” value was inactive: 0.
HISPPD1 (UniProt O43314) was tested, and the “dose-dependent thermal stabilisation call” value was inactive: 0.
For GSE1 (UniProt Q14687), the “dose-dependent thermal stabilisation call” value was inactive: 0.
For GOLGB1 (UniProt Q14789), the “dose-dependent thermal stabilisation call” value was inactive: 0.
In the case of HCG_2004593, the “dose-dependent thermal stabilisation call” value is reported as inactive: 0.
GSTCD (UniProt Q8NEC7) was tested, and the “dose-dependent thermal stabilisation call” value was active: 1.
In the case of GOLGA3 (UniProt Q08378), the “dose-dependent thermal stabilisation call” value is reported as inactive: 0.
For GPR108 (UniProt Q9NPR9), the “dose-dependent thermal stabilisation call” value was inactive: 0.
In the case of GCC2 (UniProt Q8IWJ2), the “dose-dependent thermal stabilisation call” value is reported as inactive: 0.
For GRB2 (UniProt P62993), the “dose-dependent thermal stabilisation call” value was inactive: 0.
With HEXA (UniProt P06865) the “dose-dependent thermal stabilisation call” value was inactive: 0.
In the case of GRHPR (UniProt Q9UBQ7), the “dose-dependent thermal stabilisation call” value is reported as inactive: 0.
